Binding data for one substance are collected here from patent US20040223972A1 (FUNCTIONAL GENETICS, published 2004).

Assay [1] deals with Myc tagged TSG101 truncated at position 250 (Homo sapiens (Human)) (UniProt Q99816). Put plainly: co-immunoprecipitation with anti-Myc antibody from transfected 293T cells.
Assay [2] has as its target Myc tagged TSG101 truncated at position 300 (Homo sapiens (Human)) (UniProt Q99816). Described as above.

No constants are given. Whether binding was seen depends on the method and setting. Binding seen in cells or lysates may run through a third protein. Some results given as binding are weak or reduced against the parent protein; the word gives no strength.

With “Ebola VP40 (1-326) (from UniProt Q05128 1-326)”, the binding result in assay [1] and in assay [2] was “binds” each time.
